Reference: US20240344026A1, “Methods to Activate Gamma Delta T cells for Antibody Dependent Cellular Cytotoxicity” (Intellistem, Inc., priority 2023, published 2024)

Test system: Gamma Delta T cells
Test: Percentage (purity) of Gamma Delta T cells by flow cytometry
Assay type: cell-based
Description: Cell counts and cell viability were established using a hemocytometer and the trypan blue exclusion method. Cell count and proliferation rate of Gamma Delta T cells was calculated on the basis of the cell number of the MNC and the percentage of Gamma Delta T cells on the MNC determined by flow cytometry.
MNC stimulated with the preferred protocol of the present invention consist mainly of Gamma Delta T cells (>90%) and further purification was generally not necessary. MNCs stimulated with R10F and Ko-Op consist mainly of γδ T cells, but especially after stimulation with R10F (prior art), also of αβ T cells and NK cells. If the product had too high a concentration of Alpha Beta T cells and NK cells to compare activity of Gamma Delta T cells cultivated in prior art or present invention mediums, Alpha Beta T cells and NKp46+ were depleted from stimulated MNC after 10 days of cultivation using the MidiMACS system and anti-TCR Alpha Beta and anti-NKp46 MicroBeads (all from Miltenyi Biotec, Bergisch Gladbach, Germany) according to manufacturer's instructions except using HSA (CSL Behring GmbH, Marburg, Germany) instead of BSA as part of the washing buffer.
For further testing, MNC were again isolated from healthy donors and cultivated with R10F (prior art) and a preferred embodiment of the present invention over 17 days.

[1] = changed stimulant vs standard protocol, zoledronate pulse or IL-15 instead of IL-2

For “IL-15: interleukin used at 10 ng/ml in place of IL-2”, the “proportion of Gamma Delta T cells (purity of the cell product)” value (“proportion of Gamma Delta T cells” below) (IL-15 instead of IL-2 combined with zoledronate pulse) was “significantly reduced” and the “proportion of Gamma Delta T cells” value [1] was “significantly reduced”.
For `O=P(O)(O)C(O)(Cn1ccnc1)P(=O)(O)O` [zoledronate, reference compound], the “proportion of Gamma Delta T cells” value [1] was “significantly reduced”.
